Test results as given in ChEMBL document CHEMBL5465560, “Selectivity Literature for EUbOPEN Chemogenomic Library” (2024).

Sequences of proteins named here, by UniProt entry; tags and fusion partners are left off. A change or cut given only in a name is not applied to a line headed by its entry.
UniProt Q04771: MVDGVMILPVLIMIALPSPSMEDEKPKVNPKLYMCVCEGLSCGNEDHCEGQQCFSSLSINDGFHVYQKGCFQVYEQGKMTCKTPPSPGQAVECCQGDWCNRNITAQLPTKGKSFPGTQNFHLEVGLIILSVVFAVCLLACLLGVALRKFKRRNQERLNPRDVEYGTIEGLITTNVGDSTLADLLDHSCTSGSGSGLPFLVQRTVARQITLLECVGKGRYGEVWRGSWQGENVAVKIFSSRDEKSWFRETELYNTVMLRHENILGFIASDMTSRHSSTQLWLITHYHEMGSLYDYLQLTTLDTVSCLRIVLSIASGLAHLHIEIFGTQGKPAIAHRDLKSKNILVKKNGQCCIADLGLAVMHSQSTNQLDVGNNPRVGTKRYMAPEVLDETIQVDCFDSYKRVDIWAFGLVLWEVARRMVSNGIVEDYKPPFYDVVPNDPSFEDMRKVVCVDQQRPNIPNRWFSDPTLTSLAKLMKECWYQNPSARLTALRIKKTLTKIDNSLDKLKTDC
UniProt P31749: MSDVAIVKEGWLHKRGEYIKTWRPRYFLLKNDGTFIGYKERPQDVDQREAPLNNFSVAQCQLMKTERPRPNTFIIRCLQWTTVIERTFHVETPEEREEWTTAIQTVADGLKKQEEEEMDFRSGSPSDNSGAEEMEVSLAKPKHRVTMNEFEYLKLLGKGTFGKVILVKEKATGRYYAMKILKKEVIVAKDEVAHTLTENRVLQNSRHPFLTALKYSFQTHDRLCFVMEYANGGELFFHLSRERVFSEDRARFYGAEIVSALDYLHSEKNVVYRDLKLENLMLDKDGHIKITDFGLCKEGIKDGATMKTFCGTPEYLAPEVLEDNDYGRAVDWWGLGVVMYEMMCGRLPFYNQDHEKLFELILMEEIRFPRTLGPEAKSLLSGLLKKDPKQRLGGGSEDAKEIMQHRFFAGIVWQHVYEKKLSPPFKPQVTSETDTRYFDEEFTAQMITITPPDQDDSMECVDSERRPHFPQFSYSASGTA
UniProt Q8IWQ3: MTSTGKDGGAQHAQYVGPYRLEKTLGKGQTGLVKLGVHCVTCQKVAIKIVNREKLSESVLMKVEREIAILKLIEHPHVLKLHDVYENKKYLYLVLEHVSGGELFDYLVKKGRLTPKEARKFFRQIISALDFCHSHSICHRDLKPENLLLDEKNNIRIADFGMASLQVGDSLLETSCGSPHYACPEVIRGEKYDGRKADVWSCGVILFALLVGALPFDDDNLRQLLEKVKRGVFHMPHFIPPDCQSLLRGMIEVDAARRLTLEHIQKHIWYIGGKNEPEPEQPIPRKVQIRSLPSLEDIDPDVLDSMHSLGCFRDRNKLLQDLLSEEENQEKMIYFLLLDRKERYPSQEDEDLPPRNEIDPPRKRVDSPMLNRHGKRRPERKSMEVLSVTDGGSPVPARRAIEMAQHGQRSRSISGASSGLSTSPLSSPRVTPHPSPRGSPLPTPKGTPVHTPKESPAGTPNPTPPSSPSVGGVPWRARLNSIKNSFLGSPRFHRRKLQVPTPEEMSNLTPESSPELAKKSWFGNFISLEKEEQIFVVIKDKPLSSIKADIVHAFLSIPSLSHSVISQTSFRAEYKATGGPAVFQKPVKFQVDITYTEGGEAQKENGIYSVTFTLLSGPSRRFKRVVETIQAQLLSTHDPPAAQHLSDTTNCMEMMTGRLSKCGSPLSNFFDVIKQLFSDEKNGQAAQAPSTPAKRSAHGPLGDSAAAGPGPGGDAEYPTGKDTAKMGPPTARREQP
UniProt O75676: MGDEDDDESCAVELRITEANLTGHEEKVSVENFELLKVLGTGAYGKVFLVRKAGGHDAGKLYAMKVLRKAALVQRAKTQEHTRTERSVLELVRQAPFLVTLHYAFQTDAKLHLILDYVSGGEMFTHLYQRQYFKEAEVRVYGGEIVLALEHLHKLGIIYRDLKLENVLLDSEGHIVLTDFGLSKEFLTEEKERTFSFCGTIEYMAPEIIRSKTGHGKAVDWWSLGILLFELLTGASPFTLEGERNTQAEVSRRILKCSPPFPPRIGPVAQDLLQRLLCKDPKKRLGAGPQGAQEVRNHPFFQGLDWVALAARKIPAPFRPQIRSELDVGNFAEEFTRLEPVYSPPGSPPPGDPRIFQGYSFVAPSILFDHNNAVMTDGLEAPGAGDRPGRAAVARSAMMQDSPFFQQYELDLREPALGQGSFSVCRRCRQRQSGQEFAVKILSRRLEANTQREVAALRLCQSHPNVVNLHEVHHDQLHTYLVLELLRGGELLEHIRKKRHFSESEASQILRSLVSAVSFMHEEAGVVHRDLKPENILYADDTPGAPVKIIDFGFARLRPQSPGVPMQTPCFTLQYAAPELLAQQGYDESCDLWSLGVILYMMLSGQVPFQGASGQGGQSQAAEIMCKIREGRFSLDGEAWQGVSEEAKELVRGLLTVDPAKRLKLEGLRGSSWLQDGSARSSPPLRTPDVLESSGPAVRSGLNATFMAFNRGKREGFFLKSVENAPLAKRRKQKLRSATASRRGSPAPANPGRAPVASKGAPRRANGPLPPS
eIF-2-alpha kinase GCN2 (Homo sapiens), Q9P2K8, UniProt Q9P2K8, whole entry S808G: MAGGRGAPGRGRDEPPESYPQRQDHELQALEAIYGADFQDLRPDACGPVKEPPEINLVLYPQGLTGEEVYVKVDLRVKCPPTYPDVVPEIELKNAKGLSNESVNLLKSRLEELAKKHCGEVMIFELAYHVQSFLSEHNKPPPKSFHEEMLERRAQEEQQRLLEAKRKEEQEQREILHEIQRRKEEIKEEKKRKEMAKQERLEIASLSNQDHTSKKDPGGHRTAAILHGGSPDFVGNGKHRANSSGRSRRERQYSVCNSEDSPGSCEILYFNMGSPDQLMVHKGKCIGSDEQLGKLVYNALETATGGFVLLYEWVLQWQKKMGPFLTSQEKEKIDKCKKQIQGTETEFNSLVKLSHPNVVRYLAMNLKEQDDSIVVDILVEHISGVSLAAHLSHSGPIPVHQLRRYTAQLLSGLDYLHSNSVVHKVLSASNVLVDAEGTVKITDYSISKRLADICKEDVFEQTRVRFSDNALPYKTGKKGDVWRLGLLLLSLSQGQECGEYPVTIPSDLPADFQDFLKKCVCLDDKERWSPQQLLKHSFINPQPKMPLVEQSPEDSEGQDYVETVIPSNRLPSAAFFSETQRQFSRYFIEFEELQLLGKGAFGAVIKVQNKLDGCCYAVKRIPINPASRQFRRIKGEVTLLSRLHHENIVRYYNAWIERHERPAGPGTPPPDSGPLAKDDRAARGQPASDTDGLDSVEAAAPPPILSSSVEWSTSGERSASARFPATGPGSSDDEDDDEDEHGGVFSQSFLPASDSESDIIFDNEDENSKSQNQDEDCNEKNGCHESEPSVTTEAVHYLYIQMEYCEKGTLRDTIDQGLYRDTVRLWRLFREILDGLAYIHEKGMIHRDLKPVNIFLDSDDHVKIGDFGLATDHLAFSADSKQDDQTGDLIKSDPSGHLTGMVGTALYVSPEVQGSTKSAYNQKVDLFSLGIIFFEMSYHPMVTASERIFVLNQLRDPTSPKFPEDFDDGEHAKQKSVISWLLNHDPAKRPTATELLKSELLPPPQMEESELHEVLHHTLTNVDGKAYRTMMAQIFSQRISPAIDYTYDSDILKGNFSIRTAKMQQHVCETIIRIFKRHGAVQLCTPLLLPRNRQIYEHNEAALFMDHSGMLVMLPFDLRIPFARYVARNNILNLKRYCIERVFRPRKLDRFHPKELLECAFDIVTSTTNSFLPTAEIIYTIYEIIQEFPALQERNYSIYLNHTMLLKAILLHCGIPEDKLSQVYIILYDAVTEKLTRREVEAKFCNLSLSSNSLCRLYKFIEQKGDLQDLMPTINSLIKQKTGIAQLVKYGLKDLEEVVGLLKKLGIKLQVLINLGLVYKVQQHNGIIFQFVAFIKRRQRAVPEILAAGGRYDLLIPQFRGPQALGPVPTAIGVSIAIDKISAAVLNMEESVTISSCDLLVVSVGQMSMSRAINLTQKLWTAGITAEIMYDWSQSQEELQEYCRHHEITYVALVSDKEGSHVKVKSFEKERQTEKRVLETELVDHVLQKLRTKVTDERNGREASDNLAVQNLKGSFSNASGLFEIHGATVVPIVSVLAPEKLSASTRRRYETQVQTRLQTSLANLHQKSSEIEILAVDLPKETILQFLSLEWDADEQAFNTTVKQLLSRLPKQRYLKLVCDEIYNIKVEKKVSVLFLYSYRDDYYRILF
UniProt Q13546: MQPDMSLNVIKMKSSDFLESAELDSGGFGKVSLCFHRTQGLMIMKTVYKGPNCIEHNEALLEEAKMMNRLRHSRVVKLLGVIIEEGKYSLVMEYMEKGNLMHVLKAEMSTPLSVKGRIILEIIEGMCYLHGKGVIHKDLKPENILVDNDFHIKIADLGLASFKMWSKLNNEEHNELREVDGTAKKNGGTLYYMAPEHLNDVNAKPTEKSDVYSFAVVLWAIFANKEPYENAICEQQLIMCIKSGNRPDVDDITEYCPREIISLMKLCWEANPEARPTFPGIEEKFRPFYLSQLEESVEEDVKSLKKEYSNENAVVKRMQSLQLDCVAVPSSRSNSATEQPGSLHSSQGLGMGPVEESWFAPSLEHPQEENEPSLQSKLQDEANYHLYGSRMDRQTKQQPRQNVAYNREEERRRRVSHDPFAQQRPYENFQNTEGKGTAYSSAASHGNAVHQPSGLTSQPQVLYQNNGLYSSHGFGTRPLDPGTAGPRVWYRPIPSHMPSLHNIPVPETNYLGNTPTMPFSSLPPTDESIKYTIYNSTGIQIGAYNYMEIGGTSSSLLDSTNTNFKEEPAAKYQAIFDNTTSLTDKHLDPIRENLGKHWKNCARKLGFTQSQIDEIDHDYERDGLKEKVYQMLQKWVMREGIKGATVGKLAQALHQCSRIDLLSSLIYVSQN
UniProt P49759: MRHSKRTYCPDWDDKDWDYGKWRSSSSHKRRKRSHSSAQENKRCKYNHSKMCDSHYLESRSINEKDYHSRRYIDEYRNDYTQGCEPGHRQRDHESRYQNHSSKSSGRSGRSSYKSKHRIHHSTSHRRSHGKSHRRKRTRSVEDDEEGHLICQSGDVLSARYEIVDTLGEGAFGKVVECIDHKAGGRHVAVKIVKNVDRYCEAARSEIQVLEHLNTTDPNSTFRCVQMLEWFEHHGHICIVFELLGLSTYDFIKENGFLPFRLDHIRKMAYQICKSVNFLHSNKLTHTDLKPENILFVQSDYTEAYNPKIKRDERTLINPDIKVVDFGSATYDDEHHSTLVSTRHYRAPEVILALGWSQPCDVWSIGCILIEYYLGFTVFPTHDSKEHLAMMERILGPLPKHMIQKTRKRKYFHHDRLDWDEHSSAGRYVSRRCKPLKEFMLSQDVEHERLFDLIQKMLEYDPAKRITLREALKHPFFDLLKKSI
UniProt Q6PHR2: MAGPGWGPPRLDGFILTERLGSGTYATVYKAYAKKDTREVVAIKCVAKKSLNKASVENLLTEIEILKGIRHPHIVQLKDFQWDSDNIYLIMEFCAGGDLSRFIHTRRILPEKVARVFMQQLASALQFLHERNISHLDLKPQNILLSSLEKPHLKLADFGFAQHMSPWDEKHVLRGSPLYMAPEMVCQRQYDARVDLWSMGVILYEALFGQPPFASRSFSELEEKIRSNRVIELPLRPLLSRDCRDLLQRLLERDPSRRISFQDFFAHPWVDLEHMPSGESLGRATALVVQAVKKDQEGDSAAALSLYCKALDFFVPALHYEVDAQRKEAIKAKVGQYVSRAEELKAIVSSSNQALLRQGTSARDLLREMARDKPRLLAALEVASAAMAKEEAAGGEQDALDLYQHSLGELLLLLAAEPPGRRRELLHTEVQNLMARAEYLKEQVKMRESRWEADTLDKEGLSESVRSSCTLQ
UniProt Q13557, whole entry: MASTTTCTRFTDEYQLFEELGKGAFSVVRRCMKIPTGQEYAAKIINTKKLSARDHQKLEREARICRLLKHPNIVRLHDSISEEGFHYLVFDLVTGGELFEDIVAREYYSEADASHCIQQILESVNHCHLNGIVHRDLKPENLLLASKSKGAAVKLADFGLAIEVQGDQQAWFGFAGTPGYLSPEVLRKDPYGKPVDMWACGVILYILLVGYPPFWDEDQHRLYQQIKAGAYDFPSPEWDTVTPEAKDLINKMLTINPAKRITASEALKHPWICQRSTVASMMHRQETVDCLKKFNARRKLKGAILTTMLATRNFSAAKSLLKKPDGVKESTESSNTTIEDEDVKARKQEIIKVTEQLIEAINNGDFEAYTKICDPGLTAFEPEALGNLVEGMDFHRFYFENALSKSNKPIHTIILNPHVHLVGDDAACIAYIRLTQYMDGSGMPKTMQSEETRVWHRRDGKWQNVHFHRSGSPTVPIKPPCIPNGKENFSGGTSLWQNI

Legend:
Details in all cases: at 1 µM
[1] = target: Serine/threonine-protein kinase MRCK gamma (Homo sapiens) (UniProt Q6DT37)
[2] = target: Activin receptor type-1 (Homo sapiens) (UniProt Q04771); assay: Selectivity interaction (KinomeScan (DiscoverX)) EUB0001581a ACVR1
[3] = target: RAC-alpha serine/threonine-protein kinase (Homo sapiens, UniProt P31749); assay: Selectivity interaction (KinomeScan (DiscoverX)) EUB0001581a AKT1
[4] = target: G protein-coupled receptor kinase 4 (Homo sapiens) (UniProt P32298); assay: Selectivity interaction (KinomeScan (DiscoverX)) EUB0001581a GRK4
[5] = target: Protein kinase C eta type (Homo sapiens) (UniProt P24723); assay: Selectivity interaction (KinomeScan (DiscoverX)) EUB0001581a PRKCH
[6] = target: Ribosomal protein S6 kinase alpha-3 (Homo sapiens, UniProt P51812)
[7] = target: Serine/threonine-protein kinase PLK2 (Homo sapiens, UniProt Q9NYY3); assay: Selectivity interaction (KinomeScan (DiscoverX)) EUB0001581a PLK2
[8] = target: Serine/threonine-protein kinase BRSK2 (Homo sapiens) (UniProt Q8IWQ3); assay: Selectivity interaction (KinomeScan (DiscoverX)) EUB0001581a BRSK2
[9] = target: Platelet-derived growth factor receptor alpha (Homo sapiens, UniProt P16234); assay: Selectivity interaction (KinomeScan (DiscoverX)) EUB0001581a PDGFRA
[10] = target: Ribosomal protein S6 kinase alpha-4 (Homo sapiens) (UniProt O75676); assay: Selectivity interaction (KinomeScan (DiscoverX)) EUB0001581a RPS6KA4
[11] = target: Phosphatidylinositol 5-phosphate 4-kinase type-2 beta (Homo sapiens) (UniProt P78356); assay: Selectivity interaction (KinomeScan (DiscoverX)) EUB0001581a PIP4K2B
[12] = tested on: Fibroblast growth factor receptor 3 (Homo sapiens), P22607 [G697C]; assay: (§1) Selectivity interaction (KinomeScan (DiscoverX)) EUB0001581a FGFR3
[13] = target: Fibroblast growth factor receptor 3 (Homo sapiens, UniProt P22607); assay: as §1
[14] = tested on: Tyrosine-protein kinase ABL1 (Homo sapiens), P00519 [F317L]; assay: (§2) Selectivity interaction (KinomeScan (DiscoverX)) EUB0001581a ABL1
[15] = tested on: Tyrosine-protein kinase ABL1 (Homo sapiens), P00519 [H396P]; assay: as §2
[16] = tested on: Tyrosine-protein kinase ABL1 (Homo sapiens), P00519 [T315I]; assay: as §2
[17] = tested on: eIF-2-alpha kinase GCN2 (Homo sapiens), Q9P2K8 [S808G]; assay: Selectivity interaction (KinomeScan (DiscoverX)) EUB0001581a EIF2AK4
[18] = target: Cyclin-dependent kinase-like 1 (Homo sapiens) (UniProt Q00532); assay: Selectivity interaction (KinomeScan (DiscoverX)) EUB0001581a CDKL1
[19] = target: Proto-oncogene tyrosine-protein kinase ROS (Homo sapiens) (UniProt P08922); assay: Selectivity interaction (KinomeScan (DiscoverX)) EUB0001581a ROS1
[20] = target: Homeodomain-interacting protein kinase 2 (Homo sapiens, UniProt Q9H2X6); assay: Selectivity interaction (KinomeScan (DiscoverX)) EUB0001581a HIPK2
[21] = target: LIM domain kinase 1 (Homo sapiens) (UniProt P53667); assay: Selectivity interaction (KinomeScan (DiscoverX)) EUB0001581a LIMK1
[22] = target: Transient receptor potential cation channel subfamily M member 6 (Homo sapiens) (UniProt Q9BX84); assay: Selectivity interaction (KinomeScan (DiscoverX)) EUB0001581a TRPM6
[23] = target: Serine/threonine-protein kinase 17B (Homo sapiens) (UniProt O94768); assay: Selectivity interaction (KinomeScan (DiscoverX)) EUB0001581a STK17B
[24] = target: Non-receptor tyrosine-protein kinase TYK2 (Homo sapiens, UniProt P29597); assay: Selectivity interaction (KinomeScan (DiscoverX)) EUB0001581a TYK2
[25] = target: Death-associated protein kinase 1 (Homo sapiens, UniProt P53355)
[26] = target: Mitogen-activated protein kinase kinase kinase 7 (Homo sapiens) (UniProt O43318); assay: Selectivity interaction (KinomeScan (DiscoverX)) EUB0001581a MAP3K7
[27] = target: Receptor-interacting serine/threonine-protein kinase 1 (Homo sapiens) (UniProt Q13546); assay: Selectivity interaction (KinomeScan (DiscoverX)) EUB0001581a RIPK1
[28] = target: Serine/threonine-protein kinase 17A (Homo sapiens) (UniProt Q9UEE5); assay: Selectivity interaction (KinomeScan (DiscoverX)) EUB0001581a STK17A
[29] = target: MAP/microtubule affinity-regulating kinase 4 (Homo sapiens) (UniProt Q96L34); assay: Selectivity interaction (KinomeScan (DiscoverX)) EUB0001581a MARK4
[30] = target: Protein-tyrosine kinase 6 (Homo sapiens, UniProt Q13882); assay: Selectivity interaction (KinomeScan (DiscoverX)) EUB0001581a PTK6
[31] = target: Serine/threonine-protein kinase TAO2 (Homo sapiens) (UniProt Q9UL54); assay: Selectivity interaction (KinomeScan (DiscoverX)) EUB0001581a TAOK2
[32] = target: Maternal embryonic leucine zipper kinase (Homo sapiens) (UniProt Q14680); assay: Selectivity interaction (KinomeScan (DiscoverX)) EUB0001581a MELK
[33] = target: Dual specificity protein kinase CLK1 (Homo sapiens, UniProt P49759); assay: Selectivity interaction (KinomeScan (DiscoverX)) EUB0001581a CLK1
[34] = target: Tyrosine-protein kinase TXK (Homo sapiens) (UniProt P42681); assay: Selectivity interaction (KinomeScan (DiscoverX)) EUB0001581a TXK
[35] = target: Serine/threonine-protein kinase PLK3 (Homo sapiens, UniProt Q9H4B4); assay: Selectivity interaction (KinomeScan (DiscoverX)) EUB0001581a PLK3
[36] = target: Serine/threonine-protein kinase ULK3 (Homo sapiens) (UniProt Q6PHR2); assay: Selectivity interaction (KinomeScan (DiscoverX)) EUB0001581a ULK3
[37] = target: Calcium/calmodulin-dependent protein kinase type II subunit delta (Homo sapiens) (UniProt Q13557); assay: Selectivity interaction (KinomeScan (DiscoverX)) EUB0001581a CAMK2D
[38] = target: Serine/threonine-protein kinase PLK4 (Homo sapiens) (UniProt O00444); assay: Selectivity interaction (KinomeScan (DiscoverX)) EUB0001581a PLK4
[39] = target: Myosin light chain kinase family member 4 (Homo sapiens) (UniProt Q86YV6); assay: Selectivity interaction (KinomeScan (DiscoverX)) EUB0001581a MYLK4
[40] = target: cAMP-dependent protein kinase catalytic subunit beta (Homo sapiens) (UniProt P22694); assay: Selectivity interaction (KinomeScan (DiscoverX)) EUB0001581a PRKACB

For `C[C@@H]1C[C@H](N)C[C@H](c2ccncc2NC(=O)c2ccc(F)c(-c3c(F)cccc3F)n2)C1`, the % of control [1] was 95%, the % of control [2] was 87% and the % of control [3] was 100%. For the same compound, the % of control [4] was 92%, the % of control [5] was 89% and the % of control [6] was 95%. The % of control [7] was 88%, the % of control [8] was 100% and the % of control [9] was 100%. The % of control [10] was 90%, the % of control [11] was 87% and the % of control [12] was 100%. For the same compound, the % of control [13] was 100%, the % of control [14] was 100% and the % of control [15] was 100%. The % of control [16] was 100%, the % of control [17] was 80% and the % of control [18] was 100%. For the same compound, the % of control [19] was 100%, the % of control [20] was 52% and the % of control [21] was 100%. The % of control [22] was 100%, the % of control [23] was 100% and the % of control [24] was 93%. The % of control [25] was 96%, the % of control [26] was 82% and the % of control [27] was 90%. For the same compound, the % of control [28] was 100%, the % of control [29] was 77% and the % of control [30] was 100%. For the same compound, the % of control [31] was 76%, the % of control [32] was 78% and the % of control [33] was 60%. The % of control [34] was 97%, the % of control [35] was 76% and the % of control [36] was 100%. The % of control [37] was 100%, the % of control [38] was 100% and the % of control [39] was 90%. The % of control [40] was 97%.
